Source: patent publication US20170348337A1 (priority 2014, published 2017)
HELM strings list residues between dots; [ac] is acetyl, [am] amide, other brackets name non-standard units.

Assay: general procedure: Fmoc solid-phase peptide synthesis; 2-chlorotrityl chloride resin; HBTU/HOBt/DIEA
Conditions: whole synthesis, scale 0.073 mmol

Question: For “PEPTIDE1{R.Q.I.K.I.W.F.Q.N.R.R.W}$$$$V2.0”, which isolated mass is on record?
Answer: 78.3 mg

Question: What about the isolated yield of the same substance?
Answer: 47%
